Amino acid sequences for entries named in this document (tags omitted). A change or cut given only in a name is not applied to a line headed by its entry. Chains listed by the source or under a name are the forms on record and can include a tag or linker.
UniProt Q9Y3Z3: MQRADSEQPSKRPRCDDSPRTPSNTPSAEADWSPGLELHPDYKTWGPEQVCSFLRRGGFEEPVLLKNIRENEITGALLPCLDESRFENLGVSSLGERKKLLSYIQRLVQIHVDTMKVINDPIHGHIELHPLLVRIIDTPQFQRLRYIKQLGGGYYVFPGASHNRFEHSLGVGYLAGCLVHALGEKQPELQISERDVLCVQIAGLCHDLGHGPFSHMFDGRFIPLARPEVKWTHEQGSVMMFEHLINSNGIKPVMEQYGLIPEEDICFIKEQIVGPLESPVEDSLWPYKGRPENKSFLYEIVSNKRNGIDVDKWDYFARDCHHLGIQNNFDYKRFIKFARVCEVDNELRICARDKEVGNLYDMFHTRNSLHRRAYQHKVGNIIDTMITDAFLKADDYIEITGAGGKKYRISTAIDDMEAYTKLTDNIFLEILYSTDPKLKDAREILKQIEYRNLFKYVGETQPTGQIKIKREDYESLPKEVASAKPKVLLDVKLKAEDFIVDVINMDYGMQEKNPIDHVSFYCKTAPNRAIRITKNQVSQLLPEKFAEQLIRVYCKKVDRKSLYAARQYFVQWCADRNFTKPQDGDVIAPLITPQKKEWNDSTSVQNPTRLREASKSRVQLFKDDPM
SAMHD1 Δ2–109-HA (Q9Y3Z3, form named): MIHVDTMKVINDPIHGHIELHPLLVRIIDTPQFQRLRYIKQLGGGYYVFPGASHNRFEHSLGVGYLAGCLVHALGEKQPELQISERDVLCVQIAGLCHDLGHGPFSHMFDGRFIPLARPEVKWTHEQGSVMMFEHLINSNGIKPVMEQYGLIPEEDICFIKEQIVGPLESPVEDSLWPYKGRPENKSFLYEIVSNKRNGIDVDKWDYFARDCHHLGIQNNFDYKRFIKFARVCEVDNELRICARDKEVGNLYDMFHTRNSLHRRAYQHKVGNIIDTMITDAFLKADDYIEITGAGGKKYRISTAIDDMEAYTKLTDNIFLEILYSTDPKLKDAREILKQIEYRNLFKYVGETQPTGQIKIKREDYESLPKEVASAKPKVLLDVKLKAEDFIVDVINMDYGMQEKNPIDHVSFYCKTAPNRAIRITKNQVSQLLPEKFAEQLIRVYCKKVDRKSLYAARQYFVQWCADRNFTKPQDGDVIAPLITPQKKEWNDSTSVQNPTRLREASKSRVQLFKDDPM
UniProt P62316: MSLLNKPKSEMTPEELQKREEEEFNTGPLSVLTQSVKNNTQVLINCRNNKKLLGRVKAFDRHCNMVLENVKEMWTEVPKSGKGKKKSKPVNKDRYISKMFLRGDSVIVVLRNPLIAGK
UniProt Q6UXN9: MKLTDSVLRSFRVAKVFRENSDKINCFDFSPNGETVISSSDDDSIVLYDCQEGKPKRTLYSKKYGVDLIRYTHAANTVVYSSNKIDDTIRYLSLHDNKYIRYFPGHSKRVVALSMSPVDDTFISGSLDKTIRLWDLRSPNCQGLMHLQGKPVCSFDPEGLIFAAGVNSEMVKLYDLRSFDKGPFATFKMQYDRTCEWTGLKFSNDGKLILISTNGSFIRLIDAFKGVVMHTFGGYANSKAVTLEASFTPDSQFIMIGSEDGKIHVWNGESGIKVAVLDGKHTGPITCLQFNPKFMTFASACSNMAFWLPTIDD
UniProt Q14974: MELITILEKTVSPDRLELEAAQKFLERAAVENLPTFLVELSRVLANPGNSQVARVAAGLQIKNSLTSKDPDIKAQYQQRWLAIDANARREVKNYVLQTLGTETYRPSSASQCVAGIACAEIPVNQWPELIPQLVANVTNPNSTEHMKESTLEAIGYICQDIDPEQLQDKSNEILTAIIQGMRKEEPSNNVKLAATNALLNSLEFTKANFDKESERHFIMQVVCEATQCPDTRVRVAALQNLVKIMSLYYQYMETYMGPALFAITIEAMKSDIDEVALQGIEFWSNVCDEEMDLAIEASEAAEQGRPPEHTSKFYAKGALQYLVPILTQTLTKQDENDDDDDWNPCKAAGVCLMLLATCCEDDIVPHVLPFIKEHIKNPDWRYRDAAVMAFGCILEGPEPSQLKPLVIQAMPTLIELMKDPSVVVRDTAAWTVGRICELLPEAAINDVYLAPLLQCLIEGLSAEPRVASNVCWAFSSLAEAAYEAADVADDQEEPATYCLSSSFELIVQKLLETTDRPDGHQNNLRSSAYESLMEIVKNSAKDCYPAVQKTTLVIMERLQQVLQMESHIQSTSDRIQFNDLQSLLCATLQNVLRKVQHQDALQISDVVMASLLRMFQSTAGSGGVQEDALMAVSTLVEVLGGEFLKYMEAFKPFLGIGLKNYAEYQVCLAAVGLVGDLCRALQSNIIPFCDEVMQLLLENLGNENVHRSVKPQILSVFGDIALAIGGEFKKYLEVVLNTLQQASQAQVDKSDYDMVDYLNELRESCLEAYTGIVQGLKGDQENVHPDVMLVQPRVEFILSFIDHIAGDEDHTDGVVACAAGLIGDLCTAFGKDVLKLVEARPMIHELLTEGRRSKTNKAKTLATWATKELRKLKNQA

According to article PMC3708934:

Key:
Test in all cases: affinity purification with mass spectrometry; SAMHD1-HA WT, K11A, Δ2–109 or empty vector transfected into HEK293T; anti-HA affinity matrix; trypsin digest, LC-MS/MS (Orbitrap Velos Pro), MaxQuant label-free quantitation
SAMHD1 K11A-HA (human) = SAMHD1 K11A-HA (human) (UniProt Q9Y3Z3)
SAMHD1 Δ2–109-HA (human) = SAMHD1 Δ2–109-HA (human) (UniProt Q9Y3Z3)
[1] = molecular target: wild-type SAMHD1-HA (sterile alpha motif and HD domain-containing protein-1) (human) (UniProt Q9Y3Z3)

Substance | binding (SAMHD1 K11A-HA (human)) | binding (SAMHD1 Δ2–109-HA (human)) | binding [1]
SNRPD2 (from UniProt P62316 1-118) | no binding | binds | binds
WDR82 (from UniProt Q6UXN9 1-313) | no binding | binds | binds
karyopherin-β1 (KPNB1) (from UniProt Q14974 1-876) | binds | binds | binds

No constants are given. Whether binding was seen depends on the method and setting. In cells and extracts the contact can be indirect. These calls come from enrichment with a bait or labelling near it, and not all partners need be listed. For part of these data: No binding means not detected with the bait.
